Laboratory results from publication doi:10.1101/2023.07.17.549407 (bioRxiv, 2023).
Substitutions are numbered along the chain they refer to. Results are given in words; binding and its absence hold for the method and conditions named. For part of these data: In cells and extracts the contact can be indirect. Some entries that bind do so weakly or less than the wild type. For part of these data: Tags and fused reporters may be left off the sequences shown.

Sequences of proteins named here, by UniProt entry; tags and fusion partners are left off.
UniProt Q8NFB2: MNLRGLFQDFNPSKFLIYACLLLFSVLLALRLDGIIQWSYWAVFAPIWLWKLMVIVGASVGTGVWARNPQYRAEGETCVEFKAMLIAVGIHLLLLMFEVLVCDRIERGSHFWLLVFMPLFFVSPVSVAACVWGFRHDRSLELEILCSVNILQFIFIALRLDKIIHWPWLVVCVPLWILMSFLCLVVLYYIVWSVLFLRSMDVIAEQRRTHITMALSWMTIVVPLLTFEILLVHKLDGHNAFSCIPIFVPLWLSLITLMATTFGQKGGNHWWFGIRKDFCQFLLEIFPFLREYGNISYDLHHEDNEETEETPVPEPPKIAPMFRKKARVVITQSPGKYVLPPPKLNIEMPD
UniProt Q9H7F4: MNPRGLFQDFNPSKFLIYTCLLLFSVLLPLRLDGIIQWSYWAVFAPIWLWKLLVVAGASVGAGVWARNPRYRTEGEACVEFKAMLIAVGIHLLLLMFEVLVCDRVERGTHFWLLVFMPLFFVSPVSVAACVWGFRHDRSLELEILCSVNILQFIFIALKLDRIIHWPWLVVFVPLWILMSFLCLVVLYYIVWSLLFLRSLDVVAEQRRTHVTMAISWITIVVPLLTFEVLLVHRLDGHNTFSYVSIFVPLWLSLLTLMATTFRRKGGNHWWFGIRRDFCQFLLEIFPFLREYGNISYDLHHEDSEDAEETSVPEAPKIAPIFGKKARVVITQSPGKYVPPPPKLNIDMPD
UniProt Q9UNE7: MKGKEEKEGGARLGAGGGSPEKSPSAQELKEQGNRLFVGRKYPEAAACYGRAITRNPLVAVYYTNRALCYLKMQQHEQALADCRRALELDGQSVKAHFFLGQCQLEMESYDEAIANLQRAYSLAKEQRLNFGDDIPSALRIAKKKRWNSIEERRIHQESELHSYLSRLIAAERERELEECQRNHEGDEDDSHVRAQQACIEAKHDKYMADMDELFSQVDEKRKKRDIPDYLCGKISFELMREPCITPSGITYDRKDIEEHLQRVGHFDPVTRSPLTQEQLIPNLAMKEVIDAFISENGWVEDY

Tests used:
[1] = target: T1, CHIC2 chimera with the Hsp70 C-terminus (CHIC2-IEEVD) (human) (UniProt Q9UKJ5); assay: co-IP
T1 sequence: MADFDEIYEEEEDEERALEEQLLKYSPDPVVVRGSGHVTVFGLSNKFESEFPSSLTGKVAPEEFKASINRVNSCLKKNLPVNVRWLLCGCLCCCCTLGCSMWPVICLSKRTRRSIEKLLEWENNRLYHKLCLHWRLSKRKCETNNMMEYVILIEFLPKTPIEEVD

[2] = target: T2, myc-CHIC1 (UniProt Q5VXU3); assay: co-IP
T2 sequence: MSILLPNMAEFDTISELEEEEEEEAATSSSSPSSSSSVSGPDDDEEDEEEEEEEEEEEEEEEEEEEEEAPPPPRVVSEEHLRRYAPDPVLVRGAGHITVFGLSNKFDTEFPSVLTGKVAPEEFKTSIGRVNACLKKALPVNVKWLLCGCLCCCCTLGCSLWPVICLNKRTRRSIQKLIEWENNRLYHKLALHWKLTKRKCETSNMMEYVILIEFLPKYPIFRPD

[3] = target: T3, myc-tagged CHIC2 D165A (human) (UniProt Q9UKJ5); assay: co-IP
T3 sequence: T1 sequence with E162F, E163R, V164P, D165A

[4] = target: T4, CHIC2 chimera with the CHIPOpt C-terminus (CHIC2-LWWPD) (human) (UniProt Q9UKJ5); assay: co-IP
T4 sequence: T1 sequence with I161L, E162W, E163W, V164P

[5] = target: T5, CHIC2 chimera with the IWWPD C-terminus (CHIC2-IWWPD) (human) (UniProt Q9UKJ5); assay: co-IP
T5 sequence: T1 sequence with E162W, E163W, V164P

[6] = target: myc-tagged CHIC2 (human) (UniProt Q9UKJ5); assay: co-IP
[7] = target: TMEM185A (UniProt Q8NFB2); assay: co-IP
[8] = target: T6, Hsp90 photo-crosslinking probe (diazirine-Lys(biotin)-MEEVD); assay: cross-linking
T6 sequence (peptide, alkyl diazirine on the N-terminus; biotin on the side chain of the spacer lysine): KMEEVD

[9] = target: T7, Hsp70 photo-crosslinking probe (diazirine-Lys(biotin)-IEEVD); assay: cross-linking
T7 sequence (peptide, alkyl diazirine on the N-terminus; biotin on the side chain of the spacer lysine): KIEEVD

[10] = target: T8, labeled CHIC2 peptide (FAM-Ahx-IFRPD) (human); assay: fluorescence polarisation
T8 sequence (peptide, N-terminal hexanoic acid linker (Ahx) and FAM fluorophore): IFRPD

[11] = target: TMEM185B (UniProt Q9H7F4); assay: co-IP
[12] = target: endogenous CHIP (HEK293T) (human (endogenous in HEK293T)) (UniProt Q9UNE7); assay: cross-linking

Molecule: endogenous CHIP (HEK293T) (from UniProt Q9UNE7 1-303) (enzyme)
- binding [1]: binds
- binding [2]: binds
- binding [3]: no binding
- binding [4]: binds
- binding [5]: binds
- binding [6]: binds
- binding [7]: binds
- binding [8]: binds
- binding [9]: binds

Molecule: endogenous HOP (HEK293T) (from UniProt P31948 1-543)
- binding [1]: no binding

Molecule: HOP, recombinant (from UniProt P31948 1-543)
- binding [10]: no binding

Molecule: myc-tagged CHIC2 (from UniProt Q9UKJ5 1-165)
- binding [11]: no binding
- binding [7]: no binding

Molecule: IFRPD (N-terminal acetyl) [CHIC2 C-terminal 5-mer peptide Ac-IFRPD]
- binding [12]: binds

Molecule: LWWPD (N-terminal acetyl) [CHIPOpt (Ac-LWWPD)]
- binding [12]: binds
